Reference: patent publication US20250213647A1, “CHEMOKINE RECEPTORS AND ALPHA1 ADRENERGIC RECEPTORS/VASOPRESSIN RECEPTORS 1A HETEROMERS AS DRUG TARGETS FOR DISEASE” (UNIVERSITY OF SOUTH FLORIDA, priority 2022, published 2025)
Some results were stated once for a whole list of compounds, not compound by compound.

Tested on: CCR1
Test: Chemotaxis assay, THP-1 cells toward CCL23 (CCR1-mediated)
Assay type: cell-based, human
Settings: dose-dependently enhanced; CCL23 10 nM; FIG. 13B, 13C
Method: Cell migration was measured employing the Neuroprobe (Gaithersburg, MD, USA) ChemoTx® Disposable Chemotaxis System. A 96-well Boyden-chamber (30 μL/well, 8 μm pores, 1×10^5 pores/cm^2 pore density) was selected for all chemotaxis experiments. Bottom wells of the Boyden-chamber were loaded with 30 μL of test substances at various concentrations. Top wells of the membrane were loaded with 25 μL of THP-1 cells, THP-1_ADRA1B^KO, wild type THP-1 cells after clonal expansion (=control for THP-1_ADRA1B^KO) or freshly isolated monocytes (200 cells/μL). THP-1 cells were suspended in depleted RPMI1640 (0.5% HyClone™ fetal bovine serum, Sigma); Freshly isolated monocytes were suspended in RPMI1640 (0.5% human platelet poor plasma, Sigma). After 3 hours, transmigrated cells were counted utilizing the Cytation 1 plate reader (BioTek) by direct imaging in high contrast bright field (4×) and post-imaging particle analyses with Gen5 (v3.05) Imaging & Microscopy Software (BioTek). The chemotactic index (CI) was calculated as the ratio of cells that transmigrated in the presence versus the absence of the test solutions.

## Cc1nc2c([nH]1)-c1ccccc1N(C(=O)c1ccc(NC(=O)c3ccccc3-c3ccccc3)cc1)CC2 [Conivaptan]
  chemotaxis induced via CCR1, % of THP-1 cells not exposed to AVPR1A ligands: 250-600%
